## Library screening results

Data taken from ChEMBL document CHEMBL3988442, “University of Dundee, Small-Polar-MMV Screening Library” (2021).

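Viability assay of Plasmodium falciparum sporozoites; the read-out is not stated. The concentration is filed as 10 mM, unlikely as a test dose, so the dose is not known. Higher reads as lower viability (inferred: compounds with an IC50 in retests scored well above the rest). Strong results were mostly tested again. Of about 34,000 compounds tested this way, about 280 (0.84%) reached 50% or more in at least one test.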

Each number is a percent effect as filed. The controls that fix the scale are not given in the record; negative values are as filed. The compounds are a random part of those screened. Two or more numbers in one place are separate tests of the same structure; such repeats can differ widely.

| compound | percent effect |
|---|---|
| `Cc1nn(C)c(C)c1CCC(=O)N1CCCC1Cn1cccn1` (stereo unspecified) | -3.833 |
| `[H][C@@]12CCN(Cc3nccs3)C[C@]1([H])[C@@H](CN(C)Cc1ccco1)OC2` | -3.571 |
| `CN(Cc1ccncc1)C(=O)Nc1cnn(CC2CCCO2)c1` (stereo unspecified) | 0.5882 |
| `CCSCc1nc(O)c2nnn(C3CCN(Cc4ccoc4)CC3)c2n1` | 12.82 |
| `CS(=O)(=O)NCCCN1CCCC1c1ccccc1` (stereo unspecified) | -5.51 |
| `CCOCC1CN(Cc2cnn(C)c2)Cc2ncn(C)c21` (stereo unspecified) | -24.09 |
| `CCc1ncc2c(n1)CN(CC(=O)Nc1ccc(Cl)cn1)CC2` | 7.843 |
| `[H][C@@]12CCCCCN(C(C)=O)[C@@]1([H])[C@H](c1cccc(F)c1)CN2C(C)=O` | 6.831 |
| `Cc1nc(CN2CCC3(C2)CN(Cc2ccco2)C3)cs1` | 15.41 |
| `O=C(CCc1cccs1)N1CCC(Nc2cccnn2)CC1` | 19.97 |
| `CCc1cc(=O)[nH]c2nnc(SCC(=O)NC(C)C)n12` | 4.454 and -5.292 |
| `CCCC(NC(=O)c1cc(C)ccc1C)c1nnn[nH]1` (stereo unspecified) | -4.721 |
| `NC(=O)CN(C(=O)Cc1ccc(C(F)(F)F)cc1)C1CCCC1` | -9.829 |
| `Cc1nn(C)c(Cl)c1C1CCCN1C(=O)c1ccc(C(N)=O)cn1` (stereo unspecified) | 15.52 |
| `CC(C)OCc1nn(CC2CC2)c2c1CN(Cc1ccco1)CC2.O=C(O)C(F)(F)F` | -3.935 |
| `Cc1ccc(CNC(C)c2nnc3n2CCCC3)o1` (stereo unspecified) | -3.432 |
| `COCCOc1cccc(CNC(=O)CN2CCN(C)CC2C)c1` (stereo unspecified) | -6.345 |
| `Cc1nnc(NCc2cccnc2OCC(F)(F)F)c(C#N)c1C` | -0.8043 |
| `Cc1nc(C)n(CC2CCCN2CCc2cccs2)n1` (stereo unspecified) | 15.5 |
| `CCc1ncc(CN(CCc2ccccc2)Cc2cccs2)cn1.O=C(O)CC(O)(CC(=O)O)C(=O)O` | -3.691 |
| `Cc1ccc(N2CCCC3(CCN(C(=O)CC(F)(F)F)C3)C2)nn1` (stereo unspecified) | 11.67 |
| `Cc1ccc(C(=O)N(C)Cc2cc(Br)cs2)c(=O)[nH]1` | -3.044 |
| `CC(C)CN1CC(O)CN(C(=O)c2cccc(C(F)(F)F)c2)CC1=O` (stereo unspecified) | 1.907 |
| `Cc1cc2ccccc2n1CCC(=O)N1CCN(C)CC1C(N)=O` (stereo unspecified) | -0.3805 |
| `CCOc1cc(Cl)ccc1CNC(=O)N1CCCC(CO)C1` (stereo unspecified) | -8.71 |
| `Cc1cccc(CN2CCc3nnc(CN(C)C)n3CC2)n1` | -9.72 |
| `COc1ccc(CN(Cc2nc(C)no2)C2CCCCC2)cc1OC` | 0.6655 |
| `CN(Cc1cccc(OC(F)F)c1)Cc1nc2c(cnn2C)c(=O)[nH]1` | 7.81 |
| `CCC1CCCCN1C(=O)Cn1nc(-c2ccc(C)s2)cc(N)c1=O` (stereo unspecified) | 4.813 |
| `O=C(O)C(c1ccc2[nH]ccc2c1)N1CCN(c2cnccn2)CC1` (stereo unspecified) | -2.249 |
| `Cc1ccc(N2N=C(C(=O)NCC3CC3)S(=O)(=O)c3cccnc32)cc1` | -3.755 |
| `CC(C)c1nnc2n1CCN(C(=O)c1cccc(C(F)(F)F)c1)C2` | -23.04 |
| `Cc1nccc(NCc2cncc3c2CCN(CC2CC2)C3)n1.Cl.Cl` | 10.94 |
| `Cc1ccc(CNC2CCCc3c2cnn3C)s1.Cl` (stereo unspecified) | -10.87 and -25.98 and -25.69 |
| `Cn1cc(CN2CCC3(C2)CN(Cc2ccsc2)C3)cn1.O=C(O)C(F)(F)F.O=C(O)C(F)(F)F` | -10.25 |
| `NC(=O)N1CCCC1COC(=O)c1cc(F)ccc1F` (stereo unspecified) | -22.4 |
| `CCc1nc(C2CCCN2CC(=O)Nc2nncs2)no1` (stereo unspecified) | 3.434 |
| `O=C(O)C(F)(F)F.[H][C@@]12CN(C(=O)c3ccco3)C[C@]1([H])OCCN2c1ncccn1` | 2.698 |
| `CNC(=O)CS(=O)(=O)Cc1coc(-c2ccc(F)cc2)n1` | -22.47 |
| `Cc1csc(C2CCCN(C(=O)c3c[nH]c(C)n3)C2)n1` (stereo unspecified) | -0.1932 |
| `CN1CCC(N(C)C(=O)c2cnc3c(cnn3C3CCCC3)c2)CC1` | -5.779 |
| `Cc1nn(C)c(C)c1C1CCCN1Cc1nc(C)c2ccccc2n1` (stereo unspecified) | 22.43 |
| `[H][C@@]12CN(C(=O)c3ccc[nH]3)C[C@]1([H])C(=O)N(Cc1cccc(F)c1)C2` | 12.11 |
| `CN1CCN(Cc2cccnc2)C(=O)C12CCN(CC1CCOC1)CC2.O=C(O)C(F)(F)F.O=C(O)C(F)(F)F.O=C(O)C(F)(F)F` (stereo unspecified) | 7.411 |
| `O=C(CCN1C(=O)CCC1=O)Nc1cnn(-c2ccccc2Cl)c1` | -16.62 |
| `COc1ccc(OCCN2CCC(c3ccnn3CCO)CC2)cc1` | -8.169 |
| `CC(NC(=O)N(C)CCCOc1ccc(F)cc1)c1nncn1C` (stereo unspecified) | -19.61 |
| `[H][C@@]12CCN(C(=O)c3sccc3C)C[C@]1(c1nc(C)no1)CCO2` | -19.16 |

Repeated from the top, 4 entries:

| compound | percent effect |
|---|---|
| `Cc1nn(C)c(C)c1CCC(=O)N1CCCC1Cn1cccn1` (stereo unspecified) | -3.833 |
| `[H][C@@]12CCN(Cc3nccs3)C[C@]1([H])[C@@H](CN(C)Cc1ccco1)OC2` | -3.571 |
| `CN(Cc1ccncc1)C(=O)Nc1cnn(CC2CCCO2)c1` (stereo unspecified) | 0.5882 |
| `CCSCc1nc(O)c2nnn(C3CCN(Cc4ccoc4)CC3)c2n1` | 12.82 |